According to PMC3267040, “Structure of a Blinkin-BUBR1 Complex Reveals an Interaction Crucial for Kinetochore-Mitotic Checkpoint Regulation via an Unanticipated Binding Site” (Structure(London, England:1993), 2011):
These are yes or no findings as the source states them, for the method shown. Binding calls can cover weak binding; strength is not graded here.

Amino acid sequences for entries named in this document (tags omitted). Residues count along the entry.
UniProt O60566, residues 57-220: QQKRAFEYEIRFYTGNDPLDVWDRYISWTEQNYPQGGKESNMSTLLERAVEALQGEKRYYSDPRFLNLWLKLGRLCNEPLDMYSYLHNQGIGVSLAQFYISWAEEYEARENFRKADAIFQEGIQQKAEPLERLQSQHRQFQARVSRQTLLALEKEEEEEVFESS

Target: BUBR1_(57-220), yeast two-hybrid fusion (human) (UniProt O60566)
Test: two-hybrid; Matchmaker 3 Y2H system; strains Y187[pGBKT7-bait] and GOLD[pGADT7-target] mated; growth on SD/-Ade/-His/-Leu/-Trp (quadruple dropout) and X-α-Gal activity (HIS, ADE, MEL1 reporters)

Substance | binding
Blinkin_(225-260), yeast two-hybrid fusion (from UniProt Q8NG31-2) (domain or fragment) | binds
Blinkin_(227-250), yeast two-hybrid fusion (from UniProt Q8NG31-2) (domain or fragment) | binds
